# Test results published in the supplement of paper PMC5355238.
# Where a name gives a salt, the structure may show the parent alone. This is one part of the list. Most values come without repeats; read them as rough.
# Test system: Reh
# Assay: S-phase gammaH2AX median, Z-score vs plate median (drug alone); higher = more S-phase DNA damage
# Conditions: MK1775 concentration 0 nM; 10 µM; 4 h
row,SMILES,S-phase gammaH2AX median (Z-score)
1,NC12CC3CC(CC(C3)C1)C2 [Amantadine hydrochloride],0.0641
2,CC1(C2CCCC2)Cc2cc(OCC(=O)O)c(Cl)c(Cl)c2C1=O (stereo not drawn),0.0252
3,NCC=CC(=O)O (stereo in doubt) [cis-4-Aminocrotonic acid],0.0233
4,CC(=O)[C@H]1CC[C@H]2[C@@H]3CC=C4C[C@@H](OS(=O)(=O)O)CC[C@]4(C)[C@H]3CC[C@]12C [Pregnenolone sulfate sodium],-0.35
5,COc1cc(Nc2ncc(F)c(Nc3ccc4c(n3)NC(=O)C(C)(C)O4)n2)cc(OC)c1OC [R406(free base)],0.0545
6,S=C(Nc1ccccc1)Nc1nccs1 [1-Phenyl-3-(2-thiazolyl)-2-thiourea],0.0497
7,CS(=O)(=O)c1cccc(CNc2nc(Nc3ccc4c(c3)CCC(=O)N4)ncc2C(F)(F)F)c1,-0.00812
8,Cc1ccc(NC(=O)c2ccc(CN3CC[C@H](N(C)C)C3)c(C(F)(F)F)c2)cc1Nc1nccc(-c2cncnc2)n1 [Bafetinib (INNO-406)],0.0329
9,COc1ccc(-c2ccc(=N)n(CCCC(=O)O)n2)cc1,-0.0133
10,CSc1ccc(C(=O)c2[nH]c(=O)[nH]c2C)cc1 [Enoximone],0.12
11,CC(=O)NCCc1c[nH]c2ccc(O)cc12 [N-Acetyl-5-hydroxytryptamine],-0.0369
12,O=c1ccc2ccc(O)c(O)c2o1 [Daphnetin],0.23
13,O=C(O)CC[C@H]1CC[C@@](c2cc(F)ccc2F)(S(=O)(=O)c2ccc(Cl)cc2)CC1,0.0816
14,CCCN(CCC)C(=O)C(CCC(=O)O)NC(=O)c1ccccc1 (stereo not drawn) [Proglumide],0.0781
15,CN1CCC(=C2c3ccccc3CC(=O)c3sccc32)CC1 [Ketotifen fumarate],0.0882
16,COc1ccccc1N1CCN(CC(O)COc2cccc3ccccc23)CC1 (stereo not drawn) [Naftopidil dihydrochloride],0.156
17,CN1CCc2ccccc2Cc2[nH]c3ccccc3c2CC1,0.00473
18,CS(=O)(=O)CCNCc1ccc(-c2ccc3ncnc(Nc4ccc(OCc5cccc(F)c5)c(Cl)c4)c3c2)o1 [Lapatinib Ditosylate (Tykerb)],-0.039
19,CN(C)c1cc2c(Nc3ccc4c(cnn4Cc4ccccc4)c3)ncnc2cn1,-0.117
20,"FC(F)(F)c1cc(COC2CCCNC2c2ccccc2)cc(C(F)(F)F)c1 [L-733,060 hydrochloride]",-0.0899
21,NC(=O)C(=O)O [Sodium Oxamate],0.0922
22,COc1cc(Cc2cnc(N)nc2N)cc(OC)c1OC [Trimethoprim],-0.601
23,CC1(COc2ccc3c(c2)ncn3-c2ccc3cccc(N4CCC(N)CC4)c3n2)COC1,0.0862
24,C[C@@H](Oc1cc(-n2cnc3ccc(CN4CCN(C)CC4)cc32)sc1C(N)=O)c1ccccc1C(F)(F)F,-0.116
25,NC(N)=NCc1cccc(I)c1 [m-Iodobenzylguanidine hemisulfate],0.132
26,NS(=O)(=O)c1cccc2c1c([N+](=O)[O-])cc1nc(O)c(O)nc12 [NBQX disodium],0.196

row,SMILES,S-phase gammaH2AX median (Z-score)
1,N#CC(=C(/N)Sc1ccccc1N)/C(C#N)=C(/N)Sc1ccccc1N,0.474
2,NC(N)=NCCNS(=O)(=O)c1cccc2cnccc12 [HA-1004 hydrochloride],0.0409
3,CNC(=O)[C@H]1O[C@@H](n2cnc3c(NCc4cccc(I)c4)ncnc32)[C@H](O)[C@@H]1O,0.0409
4,C=C[C@H]1CN2CC[C@H]1C[C@@H]2[C@@H](O)c1ccnc2ccc(OC)cc12 [Quinidine sulfate],-0.0686
5,CN(C)CCC=C1c2ccccc2CCc2ccccc21 [Amitriptyline hydrochloride],-0.00583
6,Cc1[nH]c(=O)c(C#N)cc1-c1ccncc1 [Milrinone],0.0686
7,CC(C)[C@H](CO)Nc1nc(Nc2cccc(Cl)c2)c2ncn(C(C)C)c2n1 [Purvalanol A],-0.577
8,Cn1c(=O)c2[nH]cnc2n(C)c1=O [Aminophylline ethylenediamine],0.0466
9,NS(=O)(=O)c1cc2c(cc1Cl)N=CNS2(=O)=O [Chlorothiazide],0.132
10,CN[C@H](CC(C)C)C(=O)N[C@H]1C(=O)N[C@@H](CC(N)=O)C(=O)N[C@H]2C(=O)N[C@H]3C(=O)N[C@H](C(=O)N[C@H](C(=O)O)c4cc(O)cc(O)c4-c4cc3ccc4O)[C@H](O)c3ccc(c(Cl)c3)Oc3cc2cc(c3O[C@@H]2O[C@H](CO)[C@@H](O)[C@H](O)[C@H]2O[C@H]2C[C@](C)(N)[C@H](O)[C@H](C)O2)Oc2ccc(cc2Cl)[C@H]1O [Vancomycin hydrochloride from Streptomyces orientalis],-0.174
11,"Cn1c(=O)c2[nH]c(C3CCCC3)nc2n(C)c1=O [8-Cyclopentyl-1,3-dimethylxanthine]",-0.0252
12,CC(C)COCC(CN(Cc1ccccc1)c1ccccc1)N1CCCC1 (stereo not drawn) [Bepridil hydrochloride],-0.0524
13,NC(=O)c1ncn([C@@H]2O[C@H](CO)[C@@H](O)[C@H]2O)n1 [Ribavirin],1.03
14,NC(=S)c1ccc[n+]([C@@H]2O[C@@H](COP(=O)([O-])OP(=O)(O)OC[C@H]3O[C@@H](n4cnc5c(N)ncnc54)C(OP(=O)(O)O)[C@H]3O)C(O)C2O)c1 (stereo partly drawn) [Thio-NADP sodium],-0.0334
15,NS(=O)(=O)c1cc(C(=O)O)c(NCc2ccco2)cc1Cl [Furosemide],0.0126
16,O=C(O)C(=O)O.[NH-]C1CCCCC1[NH-].[Pt+2] (stereo not drawn) [Oxaliplatin (Eloxatin)],1.04
17,CCc1cncnc1N1CCN(Cc2nc3ccc(C(F)(F)F)cc3[nH]2)CC1,0.0437
18,"Nc1ccccc1NC(=O)c1ccc(CNC(=O)OCc2cccnc2)cc1 [Entinostat (MS-275, SNDX-275)]",0.138
19,O=C1NCN(c2ccccc2)C12CCN(CCCC(c1ccc(F)cc1)c1ccc(F)cc1)CC2 [Fluspirilene],-0.211
20,COc1cccc(OC)c1OCCNCC1COc2ccccc2O1 (stereo not drawn) [WB-4101 hydrochloride],-0.132
21,N=C(N)NC(=O)c1nc(Cl)c(N)nc1N [Amiloride hydrochloride],-0.105
22,O=C(O)CCC(=O)N1CCC[C@H]1C(=O)O [N-Succinyl-L-proline],-0.214
23,O=[N+]([O-])c1cccc2c(Br)[nH]nc12 [3-Bromo-7-nitroindazole],0.0874
24,CN(C)CC[C@H](CSc1ccccc1)Nc1ccc(S(=O)(=O)NC(=O)c2ccc(N3CCN(Cc4ccccc4-c4ccc(Cl)cc4)CC3)cc2)cc1[N+](=O)[O-],0.381
25,CC(=O)SCC[N+](C)(C)C [Acetylthiocholine chloride],-0.0796
26,CC(C)COC(=O)OCN1C(=O)CN(CCN2CC(=O)N(COC(=O)OCC(C)C)C(=O)C2)CC1=O [Sobuzoxane],2.52

row,SMILES,S-phase gammaH2AX median (Z-score)
1,C[C@@H]1C(=O)NC2=Nc3cccc(Cl)c3CN21 [Quazinone],0.102
2,CCCCCCCCCCCCC/C=C/[C@@H](O)[C@@H](N)CO [Sphingosine],0.0267
3,Cc1cc(N)c2ccccc2[n+]1CCCCCCCCCC[n+]1c(C)cc(N)c2ccccc21 [Dequalinium dichloride],0.0535
4,Nc1c2c(nc3ccccc13)CCCC2O (stereo not drawn) [Hydroxytacrine maleate],0.0945
5,CCN(CC)CCCCCCCCOC(=O)c1cc(OC)c(OC)c(OC)c1 [TMB-8 hydrochloride],0.287
6,N#CC(C#N)=C(N)/C(C#N)=C/c1cc(O)c(O)c(O)c1 [Tyrphostin 51],0.327
7,Cn1ccc2cc3c(cc21)CCN3C(=O)Nc1cccnc1,-0.521
8,O=C(O)CP(=O)(O)O [Phosphonoacetic acid],-0.0686
9,NCCNC(=O)c1ccc(Cl)cc1 [Ro 16-6491 hydrochloride],-0.1
10,O=C(c1ccccc1)c1ccc2n1CCC2C(=O)O (stereo not drawn) [Ketorolac tris salt],-0.0157
11,CNC(=O)[C@H]1O[C@@H](n2cnc3c(NCc4cccc(I)c4)nc(Cl)nc32)[C@H](O)[C@@H]1O [Chloro-IB-MECA],-0.0504
12,CCN(CC)CCCC(C)Nc1nc(C)cc(Nc2ccc3nc(C)cc(N)c3c2)n1 (stereo not drawn),0.0336
13,CC(C)(C)NCC(O)COc1cccc2[nH]c(=O)[nH]c12 (stereo not drawn),-0.0485
14,"O=C1NC(=O)C(c2ccccc2)(c2ccccc2)N1 [5,5-Diphenylhydantoin]",0.0819
15,CN1Cc2c(N)cccc2C(c2ccccc2)C1 (stereo not drawn) [Nomifensine maleate],-0.0781
16,CN(C)C/C=C/C(=O)Nc1cc2c(Nc3ccc(F)c(Cl)c3)ncnc2cc1O[C@H]1CCOC1 [Afatinib (BIBW2992)],-0.000387
17,COc1cccc(C(=O)NCCN2CCN(c3ccc(Cl)cc3)CC2)c1,0.00194
18,NC(=O)c1cccc(N)c1 [3-aminobenzamide],-0.033
19,Cc1ccc(-n2nc(C(C)(C)C)cc2NC(=O)Nc2ccc(OCCN3CCOCC3)c3ccccc23)cc1 [BIRB 796 (Doramapimod)],-0.0445
20,CNC(=O)c1ccc(C)c(-n2c(C)cc(OCc3ccc(F)cc3F)c(Br)c2=O)c1,-0.00889
21,CCCN(CCc1ccccc1)C1CCc2c(O)cccc2C1 (stereo not drawn) [(?)-PPHT hydrochloride],0.0331
22,CNC(=N)NCCC[C@H](N)C(=O)O [NG-Monomethyl-L-arginine acetate],0.111
23,O=C(O)C1=CCCN(CCON=C(c2ccccc2)c2ccccc2)C1 [NO-711 hydrochloride],-0.128
24,N#C/C(=C\c1ccc(O)c(O)c1)C(=O)NCc1ccccc1 [Tyrphostin AG 490],0.147
25,"C#CCn1c(=O)c2c(ncn2C)n(C)c1=O [3,7-Dimethyl-I-propargylxanthine]",0.132
26,Oc1cccc(-c2nc(N3CCOCC3)c3oc4ncccc4c3n2)c1,-0.192

# Copied from the list:
# S-phase gammaH2AX median (Z-score), O=C1NC(=O)C(c2ccccc2)(c2ccccc2)N1 [5,5-Diphenylhydantoin] is entered as 0.0819
# S-phase gammaH2AX median (Z-score), Cc1ccc(-n2nc(C(C)(C)C)cc2NC(=O)Nc2ccc(OCCN3CCOCC3)c3ccccc23)cc1 [BIRB 796 (Doramapimod)] is entered as -0.0445
# S-phase gammaH2AX median (Z-score), CCCCCCCCCCCCC/C=C/[C@@H](O)[C@@H](N)CO [Sphingosine] is entered as 0.0267
# S-phase gammaH2AX median (Z-score), Cn1ccc2cc3c(cc21)CCN3C(=O)Nc1cccnc1 is entered as -0.521
# S-phase gammaH2AX median (Z-score), CN1Cc2c(N)cccc2C(c2ccccc2)C1 (stereo not drawn) [Nomifensine maleate] is entered as -0.0781
